Some entries share one result that the patent states for a list of compounds.
Tests used:
Assay type in all cases: in vivo
Phytophthora infestans = conditions: 0.02% active substance, spray; tomato cv. Roter Gnom; inoculated two days after application; assessed after 4 days incubation
Puccinia graminis = conditions: 0.02% active substance, spray; wheat cv. Arina; inoculated two days after application; assessed 10 days after inoculation
Pyricularia oryzae = conditions: 0.02% active substance, spray; rice cv. Sasanishiki; inoculated two days after application; assessed after 6 days incubation

Row | Compound | control of the fungal infection (Phytophthora infestans) | control of the fungal infection (Puccinia graminis) | control of the fungal infection (Pyricularia oryzae)
1 | CC1=NN(c2cc(-c3ccnc(Nc4cccc(Cl)c4)n3)ccn2)C(=O)C1(C)C [1.01/028, 2-{4-[2-(3-Chloro-phenylamino)-pyrimidin-4-yl]-pyridin-2-yl}-4,4,5-trimethyl-2,4-dihydro-pyrazol-3-one] | over 70% | over 70% | 
2 | CCC1(C)C(=O)N(c2cc(-c3ccnc(Nc4cccc(Cl)c4)n3)ccn2)N=C1C (centres unmarked) [1.03/028, 2-{4-[2-(3-Chloro-phenylamino)-pyrimidin-4-yl]-pyridin-2-yl}-4-ethyl-4,5-dimethyl-2,4-dihydro-pyrazol-3-one] | over 70% | over 70% | 
3 | CC1=NN(c2cc(-c3ccnc(Nc4cccc(Cl)c4)n3)ccn2)C(=O)C12CC2 [1.04/028, 5-{4-[2-(3-Chloro-phenylamino)-pyrimidin-4-yl]-pyridin-2-yl}-7-methyl-5,6-diaza-spiro[2.4]hept-6-en-4-one] | over 70% |  | over 70%
4 | CC1(C)C=NN(c2cc(-c3ccnc(Nc4cccc(Cl)c4)n3)ccn2)C1=O [1.07/028, 2-{4-[2-(3-Chloro-phenylamino)-pyrimidin-4-yl]-pyridin-2-yl}-4,4-dimethyl-2,4-dihydro-pyrazol-3-one] | over 70% | over 70% | 
5 | Cc1c(C)n(C)n(-c2cc(-c3ccnc(Nc4cccc(Cl)c4)n3)ccn2)c1=O [2.02/028, 2-{4-[2-(3-Chloro-phenylamino)-pyrimidin-4-yl]-pyridin-2-yl}-1,4,5-trimethyl-1,2-dihydro-pyrazol-3-one] |  | over 70% | 
6 | Cc1cc(=O)n(-c2cc(-c3ccnc(Nc4cccc(Cl)c4)n3)ccn2)n1C [2.03/028, 2-{4-[2-(3-Chloro-phenylamino)-pyrimidin-4-yl]-pyridin-2-yl}-1,5-dimethyl-1,2-dihydro-pyrazol-3-one] |  | over 70% | over 70%
7 | Cc1cn(C)n(-c2cc(-c3ccnc(Nc4cccc(Cl)c4)c3)ccn2)c1=O [2.05/028, 2-{4-[2-(3-Chloro-phenylamino)-pyridin-4-yl]-pyridin-2-yl}-1,4-dimethyl-1,2-dihydro-pyrazol-3-one] |  | over 70% | 
8 | CCn1c(C)c(C)c(=O)n1-c1cc(-c2ccnc(Nc3cccc(Cl)c3)c2)ccn1 [2.06/028, 2-{4-[2-(3-Chloro-phenylamino)-pyridin-4-yl]-pyridin-2-yl}-1-ethyl-4,5-dimethyl-1,2-dihydro-pyrazol-3-one] |  | over 70% | over 70%

From US7205301B2, “Microbiocidal N-phenyl-n-[4-(4-pyridyl)-2-pyrimidin-2-yl]-amine derivatives” (Syngenta Crop Protection, Inc., priority 2001, dated 2007)
